These are yes or no findings as the source states them, for the method shown. Some entries that bind do so weakly or less than the wild type.
Key:
[1] = biological target: T1, canine PD-L1-Ig (canine; rabbit) (UniProt E2RKZ5); assay: blocking ELISA: canine PD-L1-Ig pre-incubated with the antibody, then added to immobilised canine PD-1-Ig (blocked ligand: canine PD-1-Ig) [panel PD-1/PD-L1 Binding Inhibition]
T1 sequence (chain, by the resolver, biotinylated in the ELISA): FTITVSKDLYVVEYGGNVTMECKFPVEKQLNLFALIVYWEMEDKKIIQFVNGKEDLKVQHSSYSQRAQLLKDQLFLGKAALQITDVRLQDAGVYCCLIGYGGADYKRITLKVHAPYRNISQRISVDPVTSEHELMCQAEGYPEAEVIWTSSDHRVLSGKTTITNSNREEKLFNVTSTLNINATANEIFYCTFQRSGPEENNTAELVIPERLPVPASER

[2] = biological target: T1, canine PD-L1-Ig (canine; rabbit); assay: blocking ELISA: canine PD-L1-Ig pre-incubated with the antibody, then added to immobilised canine CD80-Ig (blocked ligand: canine CD80-Ig) [panel CD80/PD-L1 Binding Inhibition]
[3] = biological target: T1, canine PD-L1-Ig (canine; rabbit); assay: blocking ELISA: biotinylated canine PD-L1-Ig pre-incubated with the antibody, then added to immobilised canine PD-1-Ig (blocked ligand: canine PD-1-Ig)

Measured: binding

B1: rat anti-bovine PD-L1 monoclonal antibody 4G12 (antibody, V domains shown)
VH: QVQLQQSGAELVKPGSSVKISCKASGYTFTSNFMHWVKQQPGNGLEWIGWIYPEYGNTKYNQKFDGKATLTADKSSSTAYMQLSSLTSEDSAVYFCASEEAVISLVYWGQGTLVTVSS
VL: DIAITQSPSSVAVSVGETVTLSCKSSQSLLYSENQKDYLGWYQQKPGQTPKPLIYWATNRHTGVPDRFTGSGSGTDFTLIISSVQAEDLADYYCGQYLVYPFTFGPGTKLELK
binds: all assays above

B2: rat-canine chimeric anti-PD-L1 antibody c4G12 (antibody, V domains shown)
VH: QVQLQQSGAELVKPGSSVKISCKASGYTFTSNFMHWVKQQPGNGLEWIGWIYPEYGNTKYNQKFDGKATLTADKSSSTAYMQLSSLTSEDSAVYFCASEEAVISLVYWGQGTLVTVSS
VL: DIAITQSPSSVAVSVGETVTLSCKSSQSLLYSENQKDYLGWYQQKPGQTPKPLIYWATNRHTGVPDRFTGSGSGTDFTLIISSVQAEDLADYYCGQYLVYPFTFGPGTKLELKQ
binds: all assays above
